The values that follow come from publication PMC5824958.

By UniProt entry, the sequences of proteins in these tests, tags left out.
UniProt P07825: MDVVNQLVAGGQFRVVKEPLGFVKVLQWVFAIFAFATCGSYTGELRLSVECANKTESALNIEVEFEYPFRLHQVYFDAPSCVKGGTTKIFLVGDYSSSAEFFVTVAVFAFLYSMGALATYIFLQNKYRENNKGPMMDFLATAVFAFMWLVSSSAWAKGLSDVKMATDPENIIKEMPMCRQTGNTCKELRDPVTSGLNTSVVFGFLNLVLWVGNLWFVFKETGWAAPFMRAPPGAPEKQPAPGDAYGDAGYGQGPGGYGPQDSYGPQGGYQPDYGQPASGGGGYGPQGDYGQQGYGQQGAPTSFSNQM

Results are given in words; binding and its absence hold for the method and conditions named. In cells and extracts the contact can be indirect. Some binding calls cover weakened binding; strength is not graded here.

What all share (assay): co-IP; rat cerebral cortex lysate; IP with anti-BRI2, anti-PSD-95, anti-synaptophysin or anti-GAP-43 antibody on Dynabeads Protein G; SDS-PAGE and immunoblot; mock IPs with mouse or rabbit IgG
(In western blotting, separated proteins are transferred to a membrane and probed.)

For assay [1], the target named is T1, BRI2 (integral membrane protein 2B) (rat (endogenous in brain)) (UniProt Q5XIE8).
T1 sequence: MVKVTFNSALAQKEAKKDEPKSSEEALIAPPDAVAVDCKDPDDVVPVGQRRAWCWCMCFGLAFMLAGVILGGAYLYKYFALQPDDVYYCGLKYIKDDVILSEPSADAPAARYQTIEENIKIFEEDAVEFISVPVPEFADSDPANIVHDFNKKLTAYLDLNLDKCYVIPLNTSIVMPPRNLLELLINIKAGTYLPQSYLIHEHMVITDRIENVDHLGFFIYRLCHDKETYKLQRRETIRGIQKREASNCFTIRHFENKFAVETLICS

Assay [2] has as its target T2, Neuromodulin (rat (endogenous in brain)) (UniProt P07936).
T2 sequence: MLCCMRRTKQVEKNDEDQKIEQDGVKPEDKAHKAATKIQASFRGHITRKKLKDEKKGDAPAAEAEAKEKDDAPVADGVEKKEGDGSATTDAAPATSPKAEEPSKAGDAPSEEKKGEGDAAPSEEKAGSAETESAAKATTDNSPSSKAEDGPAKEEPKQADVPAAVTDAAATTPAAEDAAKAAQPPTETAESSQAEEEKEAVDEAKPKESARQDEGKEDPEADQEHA

For assay [3], the target named is Synaptophysin (rat (endogenous in brain)) (UniProt P07825).

B1: Neuromodulin (protein, UniProt P07936 1-226)
chain: T2 sequence
Regarding B1, the binding entry in assay [1] is recorded as “binds”.

B2: BRI2 (integral membrane protein 2B) (protein, UniProt Q5XIE8 1-266)
chain: T1 sequence
In the case of B2, the binding entry in assay [2] and in assay [3] was “binds” each time.
